# From PubChem BioAssay AID504444 (National Center for Advancing Translational Sciences (NCATS), 2011)
# Out of some 360,000 compounds screened, about 7,500 (2.1%) were called active. Inconclusive means that the source gave no clear call. Such entries were picked first, then a sample of the others. The call rests on the fitted dose curve; in most records, active means well fitted inhibition curve with a large enough effect; inconclusive means small, poorly fitted or top-dose-only effect, or effect the other way; inactive means flat fitted curve, though single readings scatter. Potencies beside an inconclusive call are fits to weak or partial responses and may not hold up.
# Assay: Nrf2 qHTS screen for inhibitors; further: nearly all actives have a fitted effect of over 60% in size
# Conditions: A549 ARE-Fluc reporter, luciferase luminescence, 18-24 h; activity change, negative = inhibition: at 46 µM (top of the series)
# Method in brief: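 Cells were seeded and rested 2 h, then exposed to compounds for 18-24 h. CellTiter-Fluor was read first as a viability measure. BugLite was added 15 min before the final luminescent read of ARE-luciferase activity in A549 cells.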
# On the % scale 0 is the no-effect control and ±100 the full control effect; potency means the concentration at half of the fitted maximal effect.
SMILES,Potency,"activity change, negative = inhibition"
COCCCNC(=O)c1c(N)n(-c2ccccc2)c2nc3ccccc3nc12,"inconclusive: 29.1 µM [falling, single point]",
CCN(C(=O)Nc1cn(CC(C)C)c(=O)c2ccccc12)c1cc(C)ccc1C,"inconclusive: 8.2 µM [activator, partial curve]",
Cc1ccc(S(=O)(=O)N2CCN(C(=O)CN3CCN(c4ccc(O)cc4)CC3)CC2)cc1,"inconclusive: 20.6 µM [falling, partial curve]",
CCCCn1cnc2c(SCc3ccc(Cl)cc3)nc(N)nc21,"inconclusive: 18.4 µM [falling, partial curve]",
CCCN(CCC)C(=S)NC(=O)c1ccc(-c2ccccc2)cc1,"inconclusive: 29.1 µM [falling, single point]",
c1ccc(OCc2nc3ccccc3s2)cc1,"inconclusive: 4.61 µM [activator, full curve]",
CCOc1ccc(S(=O)(=O)N2CCN(CC(O)COc3cccc([N+](=O)[O-])c3)CC2)cc1 (stereo not drawn),"inconclusive: 29.1 µM [falling, single point]",
C/C(=N/N=C/c1ccccc1O)c1ccccc1O,"inconclusive: 29.1 µM [activator, single point]",
Cc1nc(-c2ccc(NC(=O)C3CCCCC3)cc2)cs1,"inconclusive: 2.59 µM [activator, full curve]",
COc1ccc(CCN2C(=S)N(C)C(=O)C2CC(=O)Nc2ccc(OC)cc2)cc1 (stereo not drawn),,inactive: 9.78%
CC(=O)Nc1ccc(NC(=O)c2cccc(Oc3ccccc3)c2)cc1,"inconclusive: 2.91 µM [activator, single point]",
O=C(c1ccc2c(=O)n(Cc3ccco3)c(=S)[nH]c2c1)N1CCCC1,,inactive: -26.7%
N#Cc1c(-c2ccc(Cl)cc2)c2c([nH]c1=O)-c1ccccc1OC2,"inconclusive: 25.9 µM [falling, partial curve, poor fit]",
O=C(Nc1ccccc1F)c1ccc(CSc2ncccn2)cc1,"inconclusive: 4.61 µM [activator, partial curve]",
O=C(COC(=O)c1cccs1)NCCN1C(=O)CSC1=O,"inconclusive: 20.6 µM [activator, single point]",
CCNC(=S)NCc1ccc2[nH]c(C)cc2c1,"inconclusive: 0.0052 µM [falling, full curve, poor fit]",
O=C(COC(=O)CCCOc1ccc(Cl)cc1Cl)NCc1ccccc1,"inconclusive: 20.6 µM [falling, single point]",
Cc1oc(-c2ccccc2Cl)nc1Cn1c(SCc2cccc(F)c2)nc2cccnc21,"inconclusive: 20.6 µM [falling, single point]",

# Reprinted at random: two compounds from above
SMILES,Potency,"activity change, negative = inhibition"
O=C(Nc1ccccc1F)c1ccc(CSc2ncccn2)cc1,"inconclusive: 4.61 µM [activator, partial curve]",
CCCN(CCC)C(=S)NC(=O)c1ccc(-c2ccccc2)cc1,"inconclusive: 29.1 µM [falling, single point]",
